# Source: paper PMC11006911
# By UniProt entry, the sequences of proteins in these tests, tags left out.
# UniProt P03372: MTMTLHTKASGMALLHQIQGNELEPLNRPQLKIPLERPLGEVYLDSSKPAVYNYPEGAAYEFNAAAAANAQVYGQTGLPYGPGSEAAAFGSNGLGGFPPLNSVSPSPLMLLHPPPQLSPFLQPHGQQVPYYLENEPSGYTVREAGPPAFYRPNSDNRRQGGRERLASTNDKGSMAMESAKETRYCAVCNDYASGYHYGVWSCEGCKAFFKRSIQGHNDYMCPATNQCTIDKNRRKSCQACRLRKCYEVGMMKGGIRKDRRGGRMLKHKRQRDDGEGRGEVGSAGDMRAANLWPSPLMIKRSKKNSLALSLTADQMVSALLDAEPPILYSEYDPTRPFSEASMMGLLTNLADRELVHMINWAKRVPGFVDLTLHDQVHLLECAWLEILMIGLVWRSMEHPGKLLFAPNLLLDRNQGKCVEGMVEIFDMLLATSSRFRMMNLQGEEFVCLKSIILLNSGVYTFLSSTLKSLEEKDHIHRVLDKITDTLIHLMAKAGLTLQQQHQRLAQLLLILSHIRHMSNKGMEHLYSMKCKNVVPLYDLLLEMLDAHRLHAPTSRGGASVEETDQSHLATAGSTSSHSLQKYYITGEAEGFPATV
# UniProt Q96P20: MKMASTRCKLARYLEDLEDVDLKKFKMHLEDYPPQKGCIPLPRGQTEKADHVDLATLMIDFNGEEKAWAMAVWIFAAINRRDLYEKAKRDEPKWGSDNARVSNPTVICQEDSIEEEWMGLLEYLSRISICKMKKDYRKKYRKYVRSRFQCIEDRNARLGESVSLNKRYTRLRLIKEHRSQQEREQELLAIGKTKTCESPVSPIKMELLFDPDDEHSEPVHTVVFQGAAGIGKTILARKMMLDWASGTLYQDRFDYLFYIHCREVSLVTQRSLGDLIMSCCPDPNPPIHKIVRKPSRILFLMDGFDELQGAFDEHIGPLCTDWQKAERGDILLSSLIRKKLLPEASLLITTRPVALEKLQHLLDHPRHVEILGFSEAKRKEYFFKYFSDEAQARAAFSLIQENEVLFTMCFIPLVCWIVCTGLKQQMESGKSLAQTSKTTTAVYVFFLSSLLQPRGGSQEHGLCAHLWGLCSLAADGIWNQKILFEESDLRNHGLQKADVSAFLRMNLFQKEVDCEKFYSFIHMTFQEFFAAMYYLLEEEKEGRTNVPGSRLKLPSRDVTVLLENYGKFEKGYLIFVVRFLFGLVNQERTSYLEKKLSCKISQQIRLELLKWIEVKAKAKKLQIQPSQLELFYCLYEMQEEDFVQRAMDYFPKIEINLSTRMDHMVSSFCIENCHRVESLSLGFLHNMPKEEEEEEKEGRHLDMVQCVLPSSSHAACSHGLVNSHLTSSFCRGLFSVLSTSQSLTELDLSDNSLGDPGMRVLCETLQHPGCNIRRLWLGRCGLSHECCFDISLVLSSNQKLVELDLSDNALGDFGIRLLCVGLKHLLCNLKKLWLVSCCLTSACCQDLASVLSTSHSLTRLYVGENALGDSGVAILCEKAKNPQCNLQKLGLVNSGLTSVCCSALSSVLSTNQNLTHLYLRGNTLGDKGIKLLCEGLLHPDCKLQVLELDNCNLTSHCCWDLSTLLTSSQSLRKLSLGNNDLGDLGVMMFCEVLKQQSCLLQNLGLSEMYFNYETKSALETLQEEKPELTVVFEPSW
# UniProt Q9ULZ3: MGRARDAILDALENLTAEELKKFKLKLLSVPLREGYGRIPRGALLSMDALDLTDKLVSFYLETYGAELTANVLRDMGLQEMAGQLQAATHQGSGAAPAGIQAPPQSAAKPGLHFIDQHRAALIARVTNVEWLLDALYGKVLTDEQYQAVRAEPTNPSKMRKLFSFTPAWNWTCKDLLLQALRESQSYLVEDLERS
# These are yes or no findings as the source states them, for the method shown. In cells and extracts the contact can be indirect. Some results given as binding are weak or reduced against the parent protein; the word gives no strength.
# Tests used:
# Flag-ERα = Flag-ERα (UniProt P03372); assay: co-IP; HEK293T cells (293FT in the methods) co-transfected for 24 h; lysis buffer 50 mM Tris-HCl, 120 mM NaCl, 1% Triton X-100; anti-Flag agarose resin with 1 mg lysate protein at 4 °C overnight; blots with anti-His, anti-GFP and anti-Flag; different concentrations of ERα-His in Fig. 4F
# Flag-NLRP3 = Flag-NLRP3 (UniProt Q96P20); assay: as above
Substance,binding (Flag-ERα),binding (Flag-NLRP3)
ASC-GFP (from UniProt Q9ULZ3 1-195),binds,–
ERα-His (estrogen receptor-α with His tag) (from UniProt P03372 1-595),–,binds
